Measurements published in the supplement of paper PMC5949888.
Most values lie at the floor of the assay. Slopes are relative: functional sequences can read slightly below zero.

tested on: Saccharomyces cerevisiae PS128 hsf1 delta, HSF1(1-493) fusion; experiment: growth estimate (transactivation domain function in HSF1 fusion, heat-shock survival) (a.u. (slope of normalised read count over time)); higher = stronger growth at 37°C, i.e. more transactivation activity; details: library: random library
Experimental: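 Random 60-nt DNA library encoding peptides of up to 20 aa, fused to the C-terminus of yeast HSF1 residues 1-493 (C-terminal TAD deleted) and expressed from the native HSF1 promoter on a CEN plasmid in hsf1-deleted S. cerevisiae PS128. Cells were selected at 37°C on -trp 5-FOA plates for 0, 2, 4, 6 and 8 days and amplicons were sequenced. Growth estimate is the slope of a robust linear fit of total-sum-normalised read counts (normalised to the first time point) over time, using at least 2 replicates. Sequences are classed functional (TAD activity) above a threshold of -0.13, set from stop-codon control sequences.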

Substance	growth estimate
ERFLGKAKQHLTSFSSIPLR	< -0.25
ERFSEELTLLTQRRH	< -0.25
ERGRRGLMDSFLCPRQ	< -0.25
ERILCTECTSVRSFEITDVQ	< -0.25
ERLGLFV	< -0.25
ERLSKQAGLGRMTASIRHLS	< -0.25
ERLVRQLKTLSNVYEIIAKG	< -0.25
ERNYRRNVFVVSSNCTILLR	< -0.25
ERPGGLPGMSRRRLTV	< -0.25
ERPLAGNGLVLMVPTGARCA	< -0.25
ERR	< -0.25
ERRAEGLGLKLLGGRGL	< -0.25
ERRASRYGSIELNVEGGLSL	< -0.25
ERRFSFVALSRSRLGRRGNP	< -0.25
ERRQRCFSMFVGRKPERIRR	< -0.25
ERRR	< -0.25
ERT	< -0.25
ERTTALGVPRSTQEMLRPIR	< -0.25
ERTTANGNCTLTMSHGLRRR	< -0.25
ERVDTLKNLFRRCVHIRFSG	< -0.25
ERVNETFLDEFQFPPTLPSS	-0.0955
ERVQLLFTLRRLAMERSQDR	< -0.25
ERVRITNLGRLYEPWSVLKR	< -0.25
ERYDAI	< -0.25

7 entries from above, reformatted.
Substance,growth estimate
ERRASRYGSIELNVEGGLSL,< -0.25
ERRFSFVALSRSRLGRRGNP,< -0.25
ERRQRCFSMFVGRKPERIRR,< -0.25
ERRR,< -0.25
ERT,< -0.25
ERTTALGVPRSTQEMLRPIR,< -0.25
ERTTANGNCTLTMSHGLRRR,< -0.25

Following part

Substance	growth estimate
ERYHTAMHVRSTSRAKSSQA	< -0.25
ERYLHDLHRD	< -0.25
ERYQSWVSPIRPAQAQL	< -0.25
ESAHLTLGIEGDYHLPDVEA	< -0.25
ESALPGPGVYKLTSSKYGTP	< -0.25
ESAPEGR	< -0.25
ESCKNGIS	< -0.25
ESCP	< -0.25
ESDYDDDGRVVFEYNRPGTN	< -0.25
ESFCPVHPPKKGLFRCS	< -0.25
ESFQLKTSSR	< -0.25
ESFSC	< -0.25
ESGELALSISVRVA	< -0.25
ESGLSARGERSPGLPFKGGL	-0.245
ESGSPPACLQKPPFEGM	< -0.25
ESHSFTLDR	< -0.25
ESI	< -0.25
ESIADPPGVARSSRKRPLSW	< -0.25
ESIAPKVRAYKSTGPAQSRD	< -0.25
ESKDMFATFMRATEVRGKRT	< -0.25
ESMTRHWGEICVLWARVSVI	< -0.25
ESNRRLARGGNSGKKNF	< -0.25
ESPKDRRGKYYAAPADAWAA	< -0.25
ESPQSSILLEMYI	< -0.25

Single entries from the list:
ESAHLTLGIEGDYHLPDVEA | growth estimate: < -0.25
ESCKNGIS | growth estimate: < -0.25
ESNRRLARGGNSGKKNF | growth estimate: < -0.25
ESDYDDDGRVVFEYNRPGTN | growth estimate: < -0.25

(list continues)

Substance	growth estimate
ESPTLLTDSGIRI	< -0.25
ESRGRICAVLYVVS	< -0.25
ESRGTRSWRLH	< -0.25
ESRGWKAVLTANRTRTCSCE	< -0.25
ESSNKVR	< -0.25
ESSTGRGLTRPIRDFFGSIP	< -0.25
ESSVRNGCVHADLLSRPRHL	< -0.25
ESTCVDSG	-0.189
ESTEKSRERVGGDVRSRVAR	< -0.25
ESTFLRIEASAQDVSGSYQQ	< -0.25
ESTINKGCWCTRQWIG	< -0.25
ESTLK	< -0.25
ESVFPPLSSIILWLKIRSDQ	< -0.25
ESVYLLAVSGFTDEEKSFIA	-0.243
ESYMFCVRRS	< -0.25
ESYSTPYSYCVLLRCRYDGY	< -0.25
ESYTFVICMDRTRKVKCYPS	-0.217
ETAMREEEWLKRPRPR	< -0.25
ETCA	< -0.25
ETCNETGVKQPGTTRARCDG	< -0.25
ETCPGDNR	< -0.25
ETCRNSRTFG	< -0.25
ETFHLMPA	< -0.25
ETFKLGTYIFRGLPIASPKM	< -0.25

Substance	growth estimate
ETGGTRDICVFHRSVPLLNS	< -0.25
ETGL	-0.248
ETGLPCPCHPAYSSSMDCVR	< -0.25
ETGSHRYGRP	< -0.25
ETGVDLRPQCVRLAARYCR	< -0.25
ETHCPTGSWARSLEGRNGLH	< -0.25
ETMPVTIGSGFGIALPERTR	< -0.25
ETNGLDGTQI	< -0.25
ETNRLKE	< -0.25
ETNVSVAVVEKLVGSGGGRV	< -0.25
ETRSEDLRGHILPSKNTTWS	< -0.25
ETRTAGNNSGSDITTADGFW	-0.246
ETSESATSVLLRVHTNPSGP	< -0.25
ETSSCDPCSGTLTFSCCAVG	< -0.25
ETSWSGCADCALISHVQPPR	< -0.25
ETVLETISSMPTAEIASGIT	< -0.25
EVAYYGQLVQNCRQLQGRPG	< -0.25
EVCD	< -0.25
EVCKPEQKFRQC	< -0.25
EVCSVANRKGSQNGWF	< -0.25
EVEPSSGRRAMTKTAVYW	< -0.25
EVFPEQLRVSSP	< -0.25
EVGASKGSSRDRTINPYSFQ	< -0.25
EVGSSFGP	< -0.25

Substance	growth estimate
EVGVTKRCRTAIKRRDSRTV	< -0.25
EVH	< -0.25
EVIGSGQALGYRPNRDMVTL	< -0.25
EVKLGLIAPLACESFISWSQ	< -0.25
EVKVVSRSR	< -0.25
EVLNRWGGGTR	< -0.25
EVLRVSAPQENPARQTGVGR	< -0.25
EVLTARALSYSRWLSRY	< -0.25
EVLWRMSNDSLAFSVPRAHP	-0.248
EVQCGIRYRDLVAHSIGCWL	< -0.25
EVR	< -0.25
EVRATQPESHLLGEESKKSF	< -0.25
EVRPCQTHSEIDASGQLIRA	< -0.25
EVRSSSTPKR	< -0.25
EVRTNVQISKCFR	< -0.25
EVSGLEPSPVYVHPRTTN	< -0.25
EVTRDVRLSIACGGLGGGHR	< -0.25
EVYSEFRCDQAFVGCTLPGK	< -0.25
EWAEDHSVGKYLLERMRPIR	< -0.25
EWALIV	< -0.25
EWDRGQEGPH	< -0.25
EWHRLNTGGLLV	< -0.25
EWPRVCGRSGGPRKAPRGH	< -0.25
EWYRGCQASTVVFSSRTTGA	< -0.25

Substance	growth estimate
EYALCSFECGQCRFGIDPFR	-0.0964
EYASERRSSSECGDRRQVPA	< -0.25
EYGISAMQTT	< -0.25
EYGTGRWESLTDLLSSGTKS	< -0.25
EYTIAT	< -0.25
FAAQR	< -0.25
FAEGRTFGRGFLT	< -0.25
FAENQDGCSASAHPHWMHGS	< -0.25
FAGALWLAALMPGCPETVLA	< -0.25
FAGLNMIYLIREADPARWAR	< -0.25
FAISVAGA	< -0.25
FALDYVGRLQAVR	-0.243
FALL	< -0.25
FALRTAV	< -0.25
FALSPITGLGMSGKEDTCCV	< -0.25
FANQPWVKDGPMGLLNNQSD	< -0.25
FAPCESPFPAVG	< -0.25
FASGLFSISSQIWKGCQDKR	< -0.25
FASLLYVVFDTVVT	< -0.25
FASWSVAQVNLRFCLTGEAS	< -0.25
FATALYTAWSPGLGADLRSQ	< -0.25
FAVGFDCAFRCRLGIMNREN	< -0.25
FAVNLNSGRKGPSTTQR	-0.216
FAVRVYAVFV	< -0.25

Substance	growth estimate
FCGLPVTLMGPIHAPREWEA	< -0.25
FCQGQPLGEHARHTGGTDFP	< -0.25
FCSLAVA	< -0.25
FCSWLIGACERLTNGGSRPG	< -0.25
FCTELQGRTRYSHHHLREYS	< -0.25
FCWADPLLWSFAYSRSPCSE	-0.164
FDGP	< -0.25
FDIDESWTMTGTKQGGV	< -0.25
FDINRSLDGFFRAANSHFRD	-0.124
FDLG	< -0.25
FDPCRQVHG	< -0.25
FDPKPSIWYYGLMNVHPNTL	< -0.25
FDSPSVRERRSKSFPSGRRG	< -0.25
FDTTDRASDHLPLLIKQDG	< -0.25
FDVIRIPQQDGPTPVDPVMT	< -0.25
FDYKPRIVPGSRFVCSAKCP	< -0.25
FEAMHGDASTMCTPNYSLIC	< -0.25
FEANLRVLSAPGGPGEMLDP	< -0.25
FECIRWKAIIAFARAWLFPT	< -0.25
FEDVH	< -0.25
FEES	< -0.25
FEFYGEAKWPG	< -0.25
FEGGP	< -0.25
FEGLPPRVEE	< -0.25

Substance	growth estimate
FEGPWVKCTHLCGSRGHPAE	< -0.25
FEGRTGPASLIDYDRSYNSR	< -0.25
FEGYENRGSLSSKGVSKGSP	< -0.25
FEM	< -0.25
FERVSGCGLGIAARSTAITQ	< -0.25
FESILRCSFVCARSGATLNA	< -0.25
FESSSRP	< -0.25
FEVGTCLHSTRPGRRFTTHV	< -0.25
FEVYEITRAPASHGRTTCRV	0.342
FEYLQQFSIMGSNICRRLVT	< -0.25
FFCTSS	< -0.25
FFEINVYCSVSHVLLLKWWR	< -0.25
FFIAEMSDVGGVVVTEAIRL	< -0.25
FFQMLGVRLCTPQLQVRRFL	-0.246
FFRQSN	< -0.25
FFTWRECESDQARG	-0.207
FFVKEGVSGRRPPPVTWTTP	< -0.25
FFVRNQWTSDQRLYTVVYLA	< -0.25
FGATIRRSIGNG	< -0.25
